Measured values reported in PubChem BioAssay AID1671190 (National Center for Advancing Translational Sciences (NCATS), 2021).
About 6,100 (1.1%) of roughly 580,000 compounds were called active. Inconclusive means that the source gave no clear call. Such entries were picked first, then a sample of the others. Calls come from the whole dose curve; as a rule, active = well fitted inhibition curve with a large enough effect; inconclusive = small, poorly fitted or top-dose-only effect, or another doubt; inactive = no such curve, though single readings can be large or run the other way. Potencies beside an inconclusive call are fits to weak or partial responses and may not hold up.

By UniProt entry, the sequences of proteins in these tests, tags left out. Where a name states a change or a piece, a line headed by the entry shows the natural chain unless it says otherwise.
UniProt P18054: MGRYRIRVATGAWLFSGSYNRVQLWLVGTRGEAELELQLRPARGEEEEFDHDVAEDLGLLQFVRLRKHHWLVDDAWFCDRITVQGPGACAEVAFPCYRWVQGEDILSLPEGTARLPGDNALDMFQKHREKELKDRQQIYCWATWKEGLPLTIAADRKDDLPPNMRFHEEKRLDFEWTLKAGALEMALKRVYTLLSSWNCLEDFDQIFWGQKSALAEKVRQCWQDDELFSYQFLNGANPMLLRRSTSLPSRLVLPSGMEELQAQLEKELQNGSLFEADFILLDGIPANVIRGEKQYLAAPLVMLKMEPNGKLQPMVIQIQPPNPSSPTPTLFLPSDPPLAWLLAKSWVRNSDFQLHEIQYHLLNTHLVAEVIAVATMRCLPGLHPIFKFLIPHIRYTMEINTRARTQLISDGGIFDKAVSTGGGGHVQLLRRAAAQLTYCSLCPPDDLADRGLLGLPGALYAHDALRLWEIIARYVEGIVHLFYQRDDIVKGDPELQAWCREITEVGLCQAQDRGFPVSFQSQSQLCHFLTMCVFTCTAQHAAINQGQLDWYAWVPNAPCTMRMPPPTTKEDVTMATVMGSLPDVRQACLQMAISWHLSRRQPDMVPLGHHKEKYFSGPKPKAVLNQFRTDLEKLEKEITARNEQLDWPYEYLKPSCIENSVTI

Target: Polyunsaturated fatty acid lipoxygenase ALOX12 (Homo sapiens) (UniProt P18054)
Test: Primary qHTS assay for inhibitors of human arachidonate 12S-lipoxygenase (ALOX12): Round 2
Conditions: purified 12hLO, xylenol orange hydroperoxide absorbance; activity change, negative = inhibition: at 108 µM (top of the series) unless noted
Outline: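 Purified human 12hLO at 150 nM in 25 mM Hepes, 0.01% Triton X-100, pH 7.0, preincubated 15 min at room temperature with compound. Reaction started with 40 uM arachidonic acid, 30 min at room temperature. Hydroperoxide measured by Fe-xylenol orange, 573/405 nm absorbance ratio.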
% is set by controls: 0 for no effect and ±100 for the full control effect; potency is the fitted concentration of half-maximal effect.

SMILES	Potency	activity change, negative = inhibition
O=C(OCC(=O)c1cccs1)c1ccco1	inconclusive: 56.2 µM [inhibitor, partial curve, poor fit]	–
COc1ccc(OC)c(CNC(=O)C2CCN(C(=O)N3CC4CC(C3)[C@H]3CCCC(=O)N3C4)CC2)c1 (some centres not stated)	inactive	–
CCCCCCC/C=N/NC(N)=S	inconclusive: 70.8 µM [inhibitor, single point]	–
CCSc1ccc([C@@H]2[C@@H]3C(=O)N(C)C(=O)[C@@H]3[C@]3(C(=O)OC)CCCCN23)cc1OC	inconclusive: 35.5 µM [inhibitor, partial curve, poor fit]	–
O=C(Nc1ccc(F)cc1)c1ccc(-n2cncn2)c([N+](=O)[O-])c1	inactive	–
O=C(O)CSc1c2c(nc3cc(C(=O)N4CCOCC4)ccc13)CCCC2	inactive	–
CCOC(=O)c1nnn(-c2nonc2-n2cccc2)c1CCl	inconclusive: 39.8 µM [inhibitor, partial curve, poor fit]	–
O=C(C=Cc1ccco1)c1ccc2ccccc2c1	active: 17.8 µM	–
CC(C)Cn1c(-c2ccc(Br)cc2)c[nH]c1=S	active: 35.5 µM	–
COC(=O)CN1CCOC(c2ccc3cc(OC)ccc3c2)C1 (configuration not stated)	inconclusive: 56.2 µM [inhibitor, partial curve, poor fit]	–
Cc1cc(=O)oc2c(C)c(OC(C)C(=O)NC3CC(C)(C)NC(C)(C)C3)ccc12 (configuration not stated)	inactive	–
CCCN(CC(=O)Nc1ccccc1C)C(=O)C1CCN(S(=O)(=O)c2ccc3c(c2)OCCO3)CC1	inconclusive: 50.1 µM [inhibitor, partial curve, poor fit]	–
CCS(=O)(=O)N1CCN(C(=O)c2cccs2)CC1	–	inconclusive: -35.2% [inhibitor]
O=C1CCCC2=C1C(c1cccc(Cl)c1Cl)n1nnnc1N2 (configuration not stated)	inconclusive: 100 µM [inhibitor, single point]	–
Cc1cnc(C(=O)OCC(=O)NC(=O)c2ccccc2)cn1	inconclusive: 11.2 µM [inhibitor, full curve, poor fit]	–
COc1ccc(CNC(=O)NCC2Cn3cccc3C(=O)N2Cc2ccccc2)cc1 (configuration not stated)	inactive	–
COc1ccc(Nc2ccc([N+](=O)[O-])cn2)cc1	active: 28.2 µM	–
CCOc1ccccc1C(O)C1=CC(=O)c2ccccc2C1=O (configuration not stated)	inconclusive: 50.1 µM [inhibitor, partial curve, poor fit]	–
COc1ccccc1-n1nc(C(=O)Nc2ccc3c(c2)OCO3)c2ccccc2c1=O	inactive	–
CC(C)C[C@H]1CNC(=S)N1CC1CCN(CCCCc2ccccc2)CC1	inconclusive: 70.8 µM [inhibitor, single point]	–
CCn1ncc(Cl)c1CNC(=O)C1CCCN(S(=O)(=O)c2cnn(C)c2)C1 (configuration not stated)	inactive	–
O=S(=O)(Nc1cccc(C(F)(F)F)c1)c1ccc(-c2cnc(C3CC3)o2)cc1	inconclusive: 56.2 µM [inhibitor, partial curve, poor fit]	–
Cc1noc(/C=C/c2ccco2)c1S(=O)(=O)N1CCC(C(=O)NCc2ccco2)CC1	inconclusive: 35.5 µM [inhibitor, partial curve, poor fit]	–

SMILES	Potency	activity change, negative = inhibition
CCN(CC)c1ccc(NC(=O)c2ccccc2)cc1S(=O)(=O)Nc1ccccc1OC	inconclusive: 56.2 µM [inhibitor, partial curve, poor fit]	–
CNC(=O)NC(=O)CCN(C)Cc1ccc(C(C)C)cc1	inconclusive: 50.1 µM [inhibitor, single point]	–
Cc1ccc(C2Cn3nnc(-c4noc(-c5cccs5)n4)c3CO2)cc1 (configuration not stated)	inactive	–
CNC(=O)c1ccc(-c2nc(CN3CCN(C(=O)Nc4ccc(C)cc4)CC3)c(C)o2)cc1	inactive	–
COc1ccccc1CNC(=O)Cn1ccc2ccccc21	inactive	–
Cc1cccc(NC(=O)CN2CCN(C(=O)CC(C)NC(=O)c3ccccc3)CC2)c1C (configuration not stated)	inactive	–
Cc1ccc2sc(N3CCN(CCNC(=O)c4ccco4)CC3)nc2c1C	inconclusive: 39.8 µM [inhibitor, partial curve, poor fit]	–
CC(C)c1ccc(/C=C/C(=O)NCCCc2ccccc2)cc1	inconclusive: 56.2 µM [inhibitor, partial curve, poor fit]	–
Cc1cccc(-n2nnnc2C2(Nc3ccccc3)CCCC2)c1	–	inconclusive: -37.5% [inhibitor]
COc1ccccc1-c1cc(C(=O)N2CCOCC2)nn2cnnc12	inconclusive: 5.01 µM [inhibitor, full curve, poor fit]	–
O=C(NCCc1ccncc1)[C@@H]1[C@@H](CO)[C@@H]2Cn3c(ccc(-c4ccccc4)c3=O)[C@@H]2N1C(=O)C1CC1	inconclusive: 126 µM [inhibitor, partial curve, poor fit]	–
O=C1NC[C@H](CCCCN2CCN(CCC3CCCCC3)C(=O)C2=O)N(CCC2CCCCC2)C1=O	inconclusive: 79.4 µM [inhibitor, single point]	–
O=[N+]([O-])c1cc2oc3c(c2c(C=NCc2ccccc2)c1O)CCCC3	inactive	–
Cc1c(/C=N/Nc2ccc(F)cc2)c(O)n(C)c(=O)c1C#N	inactive	–
O=C1CSc2ccc(S(=O)(=O)N3CCCC3)cc2N1	inconclusive: 39.8 µM [inhibitor, single point]	–
O=C1[C@H]2CC[C@H](CN(Cc3ccc(-n4ccnc4)cc3)C2)N1CC1CCC1	inactive	–
CCOc1c(C)cnc2c1c(=O)n(Cc1ccccc1F)c(=O)n2C	inactive	–
O=C(NNC(=S)NC(=O)c1ccccc1[N+](=O)[O-])c1ccccc1Cl	inconclusive: 11.2 µM [inhibitor, full curve, poor fit]	–
CCN1CCCC1CNC(=O)c1nc(-c2ccc3[nH]ccc3c2)no1 (configuration not stated)	inconclusive: 89.1 µM [inhibitor, single point]	–
COc1ccc(NC(=O)CSC2=C(C#N)C(c3ccc(Cl)cc3)C(C(C)=O)=C(C)N2)cc1 (configuration not stated)	inconclusive: 4.47 µM [inhibitor, partial curve, poor fit]	–
COc1cc(F)ccc1-c1nccc2c(=O)cc(N(C)C3CCOCC3)oc12	inconclusive: 70.8 µM [inhibitor, full curve, poor fit]	–
CCOC(=O)c1c(S(=O)(=O)N2CCC(C(=O)Nc3ccc(F)cc3)CC2)c(C)n(C)c1C	inactive	–
CC(C)c1ccc(OCC(=O)Nc2c(C(=O)c3ccc(F)cc3)oc3ccccc23)cc1	inconclusive: 79.4 µM [inhibitor, partial curve, poor fit]	–

SMILES	Potency	activity change, negative = inhibition
CC(C)N=C1NN=C(c2ccc(Cl)c(Cl)c2)CS1	inconclusive: 50.1 µM [inhibitor, partial curve, poor fit]	–
COc1ccccc1-c1c(C)nn2c(SCC(=O)NCc3ccccc3)cc(C)nc12	inactive	–
Cc1ccc(OCC(=O)Nc2ccc3nc(SCC(=O)N4CCOCC4)sc3c2)cc1	inactive	–
CC[C@]12c3[nH]c4ccccc4c3CCN1C(=O)C(CC(=O)NCCC1=CCCCC1)C[C@@H]2C(=O)N1CCN(C(=O)c2ccco2)CC1 (some centres not stated)	inconclusive: 79.4 µM [inhibitor, partial curve, poor fit]	–
Cc1ccc(-c2cc(C(=O)Nc3ccc(F)cc3)c3ccccc3n2)o1	active: 3.16 µM	–
Nc1nc(C2CC(O)C2)cc(N2CCC(Cc3ccc(F)cc3)CC2)n1 (configuration not stated)	inconclusive: 44.7 µM [inhibitor, partial curve]	–
N#CC12CCCCC1CC1CCCCC1(C#N)N2N (configuration not stated)	inconclusive: 14.1 µM [inhibitor, partial curve, poor fit]	–
C=CCOc1ccc(C2NC(=S)NC3=C2CCc2ccccc23)cc1 (configuration not stated)	inconclusive: 126 µM [inhibitor, partial curve, poor fit]	–
CCCCS(=O)(=O)Nc1ccc(C)cn1	inconclusive: 79.4 µM [inhibitor, partial curve, poor fit]	–
CSc1nnc(-c2sc(-c3ccccc3)nc2C)n1C	inconclusive: 100 µM [inhibitor, partial curve, poor fit]	–
CCOC(=O)C1CCCN(S(=O)(=O)CCNC(=O)c2ccc3c(c2)OCO3)C1 (configuration not stated)	inactive	–
N#C/C(=C\c1cccc(Cl)c1)c1n[nH]c(Cn2cncn2)n1	inconclusive: 39.8 µM [inhibitor, single point]	–
OC(CN1CCN(Cc2ccccc2)CC1)c1ccc(F)cc1 (configuration not stated)	inconclusive: 28.2 µM [inhibitor, partial curve, poor fit]	–
O=C(Nc1ncc(Cc2ccc(C(F)(F)F)cc2)s1)c1ccc(-c2cccc([N+](=O)[O-])c2)o1	inconclusive: 79.4 µM [inhibitor, partial curve, poor fit]	–
c1cc(-c2cc3c(ccn3Cc3ccncc3)c(N3CCOCC3)n2)c2cn[nH]c2c1	inactive	–
Cc1ccc(C(CC(=O)NCc2ccco2)c2ccc(OC(C)C)cc2)cc1 (configuration not stated)	inconclusive: 56.2 µM [inhibitor, partial curve, poor fit]	–
O=C(COC(=O)CNC(=O)c1ccco1)Nc1ncc(Cl)cc1Cl	inconclusive: 100 µM [inhibitor, single point]	–
CNC(=O)NC(=O)C(C)Oc1ccc2ccc(=O)oc2c1 (configuration not stated)	inconclusive: 56.2 µM [inhibitor, partial curve, poor fit]	–
O=[N+]([O-])c1cnc(NS(=O)(=O)c2ccccc2[N+](=O)[O-])s1	active: 39.8 µM	–
Cc1ccc(C(=O)N2CCN(c3ccc(NC(=O)c4ccc(Br)o4)cc3)CC2)cc1	inactive	–
COC(=O)CC1[C@@]2(C)C[C@]34OC5(C)OC6(C7CC(=O)OC(c8ccoc8)[C@]7(C)CCC6(O5)[C@]13C)C(OC(C)=O)[C@]4(OC(C)=O)C2OC(C)=O (some centres not stated)	inactive	–

Shown with bars between the fields: part of the list above
SMILES | Potency | activity change, negative = inhibition
CNC(=O)NC(=O)CCN(C)Cc1ccc(C(C)C)cc1 | inconclusive: 50.1 µM [inhibitor, single point] | –
Cc1ccc(C2Cn3nnc(-c4noc(-c5cccs5)n4)c3CO2)cc1 (configuration not stated) | inactive | –
CNC(=O)c1ccc(-c2nc(CN3CCN(C(=O)Nc4ccc(C)cc4)CC3)c(C)o2)cc1 | inactive | –
